Measured values as given in US20090304719A1.
Results are given in words; binding and its absence hold for the method and conditions named. Some binding calls cover weakened binding; strength is not graded here.

The chains behind the UniProt entries cited, without tags or fusion partners. Where a name states a change or a piece, a line headed by the entry shows the natural chain unless it says otherwise. A line that says so, or that is headed by a name, gives the form on record, which may keep a tag or linker.
VEGF (P15692, form named): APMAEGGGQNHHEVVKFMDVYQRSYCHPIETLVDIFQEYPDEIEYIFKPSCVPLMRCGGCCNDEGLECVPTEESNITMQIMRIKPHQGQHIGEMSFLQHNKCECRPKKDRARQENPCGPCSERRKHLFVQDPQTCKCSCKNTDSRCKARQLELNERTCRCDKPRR

Molecular target: VEGF (UniProt P15692)
Experiment: FACS, construct displayed on E. coli (CPX), labeled VEGF; MMP-2 treated against untreated

binding: binds
B1: GS control (designed binder, not shown: large carriers; small tags and cut ends)
chain: GQSGQGGSGGSGGSGGSGGSPLGLAGGGSGNFGYGKWEWDYGKWLEKVGGG
